Experimental data taken from publication PMC4226694.
No constants are given. Whether binding was seen depends on the method and setting. In cells and extracts the contact can be indirect. Some binding calls cover weakened binding; strength is not graded here.

Amino acid sequences for entries named in this document (tags omitted). Residues count along the entry.
UniProt P98170: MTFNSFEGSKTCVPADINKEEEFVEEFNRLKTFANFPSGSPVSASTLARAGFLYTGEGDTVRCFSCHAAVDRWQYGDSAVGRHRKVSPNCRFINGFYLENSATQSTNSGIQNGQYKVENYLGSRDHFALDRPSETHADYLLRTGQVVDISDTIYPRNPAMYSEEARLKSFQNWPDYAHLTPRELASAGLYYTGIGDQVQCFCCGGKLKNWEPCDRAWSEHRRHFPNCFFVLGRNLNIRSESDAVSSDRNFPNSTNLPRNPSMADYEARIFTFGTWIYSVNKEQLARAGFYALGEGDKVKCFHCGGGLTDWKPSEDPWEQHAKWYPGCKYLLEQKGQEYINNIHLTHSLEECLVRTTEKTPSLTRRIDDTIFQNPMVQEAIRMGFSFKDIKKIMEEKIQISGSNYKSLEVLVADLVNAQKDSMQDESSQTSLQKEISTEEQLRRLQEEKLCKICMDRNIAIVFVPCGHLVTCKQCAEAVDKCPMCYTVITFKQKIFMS
UniProt O15392: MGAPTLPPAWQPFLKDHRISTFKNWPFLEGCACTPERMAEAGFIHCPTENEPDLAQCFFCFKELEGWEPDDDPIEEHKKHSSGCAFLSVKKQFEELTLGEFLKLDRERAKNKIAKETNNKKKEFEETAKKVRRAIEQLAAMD
UniProt P05161, residues 1-157: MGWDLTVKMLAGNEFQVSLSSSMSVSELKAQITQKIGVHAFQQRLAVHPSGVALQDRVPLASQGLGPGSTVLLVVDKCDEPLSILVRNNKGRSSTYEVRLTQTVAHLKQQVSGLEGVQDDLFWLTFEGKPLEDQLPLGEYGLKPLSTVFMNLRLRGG

Molecular target: X-linked inhibitor of apoptosis (XIAP) (UniProt P98170)
Test: co-IP; cells transfected with the indicated plasmids; IP lysis buffer (20 mM Tris-HCl pH 8.0, 150 mM NaCl, 1 mM EDTA, 0.5% Nonidet P-40, 1 mM dithiothreitol); supernatants immunoprecipitated with anti-Flag at 4°C overnight; immunoblot with anti-myc, anti-HA, anti-Flag

Row | Substance | binding
1 | Survivin (from UniProt O15392 1-142) | binds
2 | Interferon-stimulated Gene 15 (ISG15) (from UniProt P05161 1-157) | binds
